Data taken from ChEMBL document CHEMBL3988442, “University of Dundee, Small-Polar-MMV Screening Library” (2021).

Amino acid sequences for entries named in this document (tags omitted).
UniProt E9BF75, entry or part of it: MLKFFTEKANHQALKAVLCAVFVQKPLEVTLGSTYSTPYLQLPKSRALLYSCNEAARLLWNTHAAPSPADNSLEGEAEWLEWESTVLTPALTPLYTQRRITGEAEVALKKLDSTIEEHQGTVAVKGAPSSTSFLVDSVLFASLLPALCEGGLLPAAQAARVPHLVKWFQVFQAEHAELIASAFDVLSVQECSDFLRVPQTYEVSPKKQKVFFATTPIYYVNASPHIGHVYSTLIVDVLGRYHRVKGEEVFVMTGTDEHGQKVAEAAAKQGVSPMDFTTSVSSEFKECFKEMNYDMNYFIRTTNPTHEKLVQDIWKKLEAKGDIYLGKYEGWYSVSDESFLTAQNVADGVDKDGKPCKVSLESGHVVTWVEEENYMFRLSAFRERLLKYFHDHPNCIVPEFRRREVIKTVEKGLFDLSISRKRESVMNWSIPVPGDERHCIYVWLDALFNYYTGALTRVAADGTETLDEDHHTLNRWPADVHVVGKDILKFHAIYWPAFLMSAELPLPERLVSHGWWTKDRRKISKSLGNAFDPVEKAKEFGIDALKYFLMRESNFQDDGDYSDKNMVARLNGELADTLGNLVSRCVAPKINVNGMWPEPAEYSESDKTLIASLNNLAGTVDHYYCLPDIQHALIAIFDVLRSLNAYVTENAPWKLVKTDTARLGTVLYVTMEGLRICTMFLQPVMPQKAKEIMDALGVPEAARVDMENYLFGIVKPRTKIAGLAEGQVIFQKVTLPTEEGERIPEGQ

Mtb heat-shock: 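Assay on Mycobacterium tuberculosis, filed only as a heat shock assay from Cornell; the read-out is not stated. The concentration is filed as 10 mM, unlikely as a test dose, so the dose is not known. Higher reads as stronger inhibition (inferred: compounds with an IC50 in retests scored well above the rest). Of about 69,000 compounds tested this way, about 930 (1.4%) reached 50% or more in at least one test.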
Mtb growth Cornell: 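Whole-cell assay for inhibitors of Mycobacterium tuberculosis growth, labelled Cornell in the record; the read-out is not stated. The concentration is filed as 10 mM, unlikely as a test dose, so the dose is not known. Higher means stronger inhibition (inferred from two other growth screens of the library). Of about 53,000 compounds tested this way, about 900 (1.7%) reached 50% or more in at least one test.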
LdMetRS: 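Primary screen of methionyl-tRNA synthetase; the read-out is not stated. Target: Methionyl-tRNA synthetase (putative), Leishmania donovani (UniProt E9BF75). The test concentration is not given. Values are per cent inhibition. Size under these conditions: about 68,000 compounds, about 24 of them at 50% or above in at least one test.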

All values are in %.
The controls that fix the scale are not given in the record; negative values are as filed.
This is an unselected part of the compounds tested.

CCc1nnc(C2Cc3ccccc3CN2Cc2cc(C)no2)o1 (centres undefined) gave Mtb heat-shock: 10.78%; Mtb growth Cornell: 11.13%; LdMetRS: 8.065%.
CCNC(=O)N1CCC(NC(=O)NCCc2cc(F)cc(F)c2)C1 (centres undefined) gave Mtb heat-shock: 4.8%; Mtb growth Cornell: -10.71%; LdMetRS: 8.541%.
N#CC1(C(=O)NCc2ccc(F)cc2)CCCC1 gave Mtb heat-shock: -10.72%; Mtb growth Cornell: -8.997%; LdMetRS: -10.17%.
Cc1nc(COC[C@]23COC[C@H]2CN(Cc2ccoc2)C3)cs1 gave LdMetRS: 13.01%.
CC(O)CN1CCC(CNCc2cn(-c3ccccc3)nn2)CC1 (centres undefined) gave Mtb heat-shock: -12.01%; Mtb growth Cornell: -2.499%; LdMetRS: 12.09%.
CC(=O)N1Cc2nccn2CC(CNC(=O)c2cnccn2)C1 (centres undefined) gave Mtb heat-shock: 0.4944%; Mtb growth Cornell: 29.43%; LdMetRS: 11.59%.
O=C(NCCc1c[nH]cn1)c1ccc(S(=O)(=O)NC2CCOC2)cc1 (centres undefined) gave Mtb heat-shock: 6.516%; Mtb growth Cornell: -11.01%; LdMetRS: 10.41%.
Cn1nnnc1SCCNC(=O)CC1CCc2ccccc21 (centres undefined) gave Mtb heat-shock: 9.96%; Mtb growth Cornell: -14.38%; LdMetRS: 11.56%.
Cc1cnc(N2C[C@H]3CCN(CC4CC4)C[C@H]3C2)nc1 gave LdMetRS: 3.759%.
COc1ccccc1CN1CC(OC)CN(C(=O)OCC(C)C)CC1=O (centres undefined) gave Mtb heat-shock: -15.27%; Mtb growth Cornell: 8.685%; LdMetRS: 10.54%.
O=C(C1CCC2(CCN(CC3CCOCC3)CC2)O1)N1CCCCO1 (centres undefined) gave LdMetRS: 9.444%.
O=C(NCCO)Nc1c(F)cccc1Oc1ccccc1 gave Mtb heat-shock: -8.267%; Mtb growth Cornell: 12.74%; LdMetRS: 11.02%.
CC(Cn1cccn1)NC(=O)Nc1ccc(F)cc1 (centres undefined) gave Mtb heat-shock: 97.32%; Mtb growth Cornell: 17.48%; LdMetRS: 11.5%.
O=C(COCC(F)(F)F)N1CCCC(n2cccn2)C1 (centres undefined) gave Mtb heat-shock: 17.87%; LdMetRS: 3.158%.
C[S+]([O-])c1nncn1CC(=O)c1cccc(Cl)c1 (centres undefined) gave Mtb heat-shock: -8.29%; Mtb growth Cornell: 12.76%; LdMetRS: 13.01%.
O=C(O)C(F)(F)F.[H][C@@]12C[C@H](c3nc(C)no3)CN(C3CCC3)[C@]1([H])CCO2 gave Mtb heat-shock: -9.582%; Mtb growth Cornell: -34.16%.
Cc1cccc(N2CCC3(CCCC(=O)N3)CC2)n1 gave LdMetRS: 19.93%.
CCC(CC)c1cc(CNC(=O)N2CCN(CC)CC2)on1 gave Mtb heat-shock: -3.083%; LdMetRS: 9.253%.
O=C(Nc1ccccc1OCc1ccccn1)NC1CCOCC1 gave Mtb heat-shock: -22.3%; Mtb growth Cornell: 30.18%; LdMetRS: 4.01%.
COc1ccc(CN2CCC3(CCCN(c4ncc(F)cn4)C3)C2)cc1.O=C(O)C(F)(F)F (centres undefined) gave Mtb heat-shock: -7.018%; Mtb growth Cornell: 36.45%.
CC(C)c1nc(CN(C)C(=O)c2cn3ccsc3n2)cs1 gave Mtb heat-shock: -4.7%; Mtb growth Cornell: -5.151%; LdMetRS: 15.26%.
CCc1cc(CNCc2ccccc2N(C)C2CCN(C)CC2)on1 gave Mtb heat-shock: -0.7405%; Mtb growth Cornell: 14.04%; LdMetRS: 10%.
CCCn1nnnc1COc1cc(OC)ccc1C(=O)OC gave Mtb heat-shock: 14.39%; Mtb growth Cornell: -0.1377%; LdMetRS: 11.55%.
Fc1ccc(-c2nccnc2C2CCCNC2)cc1 (centres undefined) gave Mtb heat-shock: 20.9%; Mtb growth Cornell: 1.116%; LdMetRS: 3.226%.
O=C(O)c1ccc2c(CN3CCOCC3)c[nH]c2c1 gave Mtb heat-shock: -11.23%; Mtb growth Cornell: -20.54%; LdMetRS: 3.106%.
COCC1CN(S(=O)(=O)Cc2ccc(C)cc2)Cc2c1cnn2C.O=C(O)C(F)(F)F (centres undefined) gave Mtb heat-shock: -26.99%; Mtb growth Cornell: 24.7%.
CC(C)c1nc(C2CCCN2c2cnc3ccccc3n2)no1 (centres undefined) gave Mtb heat-shock: -6.101%; LdMetRS: 17.9%.
CN(C)CCC1CCN(Cc2ccn(C)c(=O)c2)CC1 gave Mtb heat-shock: -19.39%; LdMetRS: 13.11%.
Cc1ccccc1C1(C(=O)NCCN(C(C)C)C(C)C)CCOCC1 gave Mtb heat-shock: 17.06%; LdMetRS: 16.21%.
O=C(CN1CCCc2c(F)cc(Br)cc21)N1CCN(C(=O)C2CC2)CC1 gave Mtb heat-shock: -12.71%; Mtb growth Cornell: 38.68%; LdMetRS: 14.43%.
CCC(=O)N1CCC(c2nc(O)c3c(n2)CN(C2CCCCC2)CC3)C1 (centres undefined) gave Mtb heat-shock: -25.23%; Mtb growth Cornell: -35.56%; LdMetRS: -0.5208%.
CNC(=O)c1cc2c(nc1NCC(C)C)CCN(CC1CC1)CC2 gave LdMetRS: 3.78%.
[H][C@]12CC[C@]([H])(CN(Cc3ccccc3)C1)N(Cc1nnc(C3CC3)o1)C2 gave Mtb heat-shock: 27.6%; Mtb growth Cornell: 19.18%.
COc1cccc(-c2ccc(CNC(=O)c3ccc(=O)n(C)c3)cc2)c1 gave Mtb heat-shock: -14.56%; Mtb growth Cornell: 20.99%; LdMetRS: 19.73%.
O=C(O)C(F)(F)F.[H][C@@]12C[C@@H](c3nc(C)no3)O[C@]1([H])CN(Cc1ccc3c(c1)OCO3)C2 gave Mtb heat-shock: 14.18%; Mtb growth Cornell: -91.44%.
O=C(CC1CC1)N1C[C@@H]2CN(c3ccccc3)C(=O)[C@@H]2C1 gave LdMetRS: 11.76%.